In the supplement of paper PMC10670038 one finds relative cell viability data, which are given here for 1 compound.

± gives the standard deviation of the averaged measurements. Shown are results outside the selection of lowest values, which stands elsewhere.

The subject of this test is TE10. The test is described as follows: relative cell viability vs DMSO, compound alone (fraction); TE10 is an esophageal squamous carcinoma line; higher = less cytotoxic. The conditions noted are these: 2 µM; 48 h. Here is the method:
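TE10 ESCC cells (1,000/well, 384-well plates) were treated with Selleck bioactive library compounds at 2 uM alone for 48 h. Viability was read by CellTiter-Glo and expressed relative to DMSO wells. Two technical replicates (A, B).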
For `O=C(O)C1=C[C@@H](O)[C@@H](O)[C@H](O)C1` [Shikimic Acid], the relative cell viability was found to be 1.102 ± 0.0079.
